Over roughly 33,000 sequences, “E-score (-0.5 to 0.5)” has its median near -0.016; the highest 2% begin near 0.3. The list shows a part of the results.
Each sequence was assayed against T1, Yer184c (UniProt P39961) (assay: PBM E-score (8-mer binding enrichment) (E-score (-0.5 to 0.5)); higher = stronger / more preferred TF binding). Conditions: protein concentration: 100 nM; construct: GST-full length.
T1 sequence: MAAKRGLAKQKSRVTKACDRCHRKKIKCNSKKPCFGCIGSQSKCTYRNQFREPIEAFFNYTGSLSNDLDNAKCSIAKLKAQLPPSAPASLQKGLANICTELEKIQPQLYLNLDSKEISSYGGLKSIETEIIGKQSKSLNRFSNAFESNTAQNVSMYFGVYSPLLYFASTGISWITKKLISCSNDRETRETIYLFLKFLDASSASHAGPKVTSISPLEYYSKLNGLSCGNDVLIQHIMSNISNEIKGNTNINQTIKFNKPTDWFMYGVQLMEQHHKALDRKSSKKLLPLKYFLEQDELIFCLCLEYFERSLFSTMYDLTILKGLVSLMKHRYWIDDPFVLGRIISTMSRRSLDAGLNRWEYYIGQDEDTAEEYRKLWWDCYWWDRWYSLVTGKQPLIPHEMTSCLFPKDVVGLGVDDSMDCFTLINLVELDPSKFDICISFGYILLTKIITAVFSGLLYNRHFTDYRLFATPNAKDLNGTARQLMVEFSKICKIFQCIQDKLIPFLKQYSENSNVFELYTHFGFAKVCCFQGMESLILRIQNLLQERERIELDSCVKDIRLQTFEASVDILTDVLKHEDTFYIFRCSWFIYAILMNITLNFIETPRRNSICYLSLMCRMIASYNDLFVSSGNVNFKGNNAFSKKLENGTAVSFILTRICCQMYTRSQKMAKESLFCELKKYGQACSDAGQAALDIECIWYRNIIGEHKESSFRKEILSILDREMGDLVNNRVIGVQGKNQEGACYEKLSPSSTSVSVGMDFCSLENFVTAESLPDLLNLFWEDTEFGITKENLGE
Procedure, shortened: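 For each ungapped eight-base word taken together with its reverse complement, the Universal PBM Analysis Suite assigned an E-score. Binding data came from GST-tagged yeast transcription factors, applied at about 100-200 nM, on universal all-10-mer Agilent arrays made double-stranded by primer extension. Fluorescent anti-GST marked bound protein, and scans were normalised with masliner.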

Sequence | PBM E-score
CTGCTGCC | -0.155
GGTAGACA | -0.0672
ATCTCTTA | 0.0605
AGAGTCCC | -0.23
ATGTGCAC | -0.0982
AAGCAGCT | 0.0387
ACGAGGCT | -0.037
CTAATGGA | -0.095
CTATATTC | -0.0128
CCCCGATC | -0.0888
GGGCATGA | -0.275
AACGAGGT | -0.149
GTGTTTTA | 0.0955
CCTCCGGA | 0.337
AACACCAG | -0.16
CCGAGCAG | 0.17
ATTAACCA | -0.114
TAGGGGGA | -0.234
AACTGGTA | 0.0058
TTTCAAAA | 0.247
TCAGCAGA | 0.0479
GTTCCGAA | 0.369
AGTACACT | -0.0934
CGCTCGTA | -0.183
TAACTGCA | 0.00907

Individual results from the entries so far.
PBM E-score, AACACCAG reads -0.16
PBM E-score, AGAGTCCC reads -0.23

(next part)

Sequence | PBM E-score
CTACAATA | 0.0373
AAGTGAGA | -0.124
GCTACAAC | 0.0298
TAGCGGGA | -0.0686
ATTCTCTC | -0.0372
ATCATCAA | 0.114
TCGATGAA | 0.134
CGGTCTCA | 0.0469
GTCCCTCA | -0.31
AGTTAAAT | 0.103
GTCAAGCA | -0.115
TAAGTGGA | 0.138
AGTCGCTG | -0.213
ATTCAACC | 0.0144
ACAGTAAG | -0.0845
CCGGAAGC | 0.329
ATCTCCAA | -0.059
CTTGATGC | -0.0365
AGATGGAG | -0.0905
AGGTGCCA | -0.18
ATAATGAT | 0.162
CTTTCTCA | 0.1
GAAAAAAC | 0.222
ATACGGTA | 0.0926
ATACCACA | 0.0277

Some of the entries above in a different format.
Sequence	PBM E-score
TAGGGGGA	-0.234
CTTTCTCA	0.1

Later entries

Sequence | PBM E-score
GCGGTAGC | -0.117
CACCTGGC | -0.23
GAGTAGGC | -0.0672
TCGGCAGA | 0.274
ACCCAACC | -0.191
AAGAACTT | 0.198
GAGACGAA | 0.0967
CTTCGTTC | -0.21
CGAGACCC | -0.0577
CGTGTTCC | 0.279
GCGTCTCC | -0.0943
ACCGCTTC | -0.0676
CCAGGTGA | -0.242
AGGGGGAC | -0.32
ACCTAACC | 0.0931
CCAATCTC | 0.0125
ATGGTATG | -0.237
GTATCTTA | 0.197
CCAAATAA | 0.135
AAATCAAG | -0.0251
ACATGACA | 0.021
CTCATGTC | -0.121
GCAGGTGA | -0.136
AACGGCTT | -0.0158
AGCCATGG | -0.226

Four entries from above in another layout:
Sequence,PBM E-score
CGTGTTCC,0.279
GCGTCTCC,-0.0943
ACCGCTTC,-0.0676
CCAGGTGA,-0.242

Continued:

Sequence | PBM E-score
TACGGCTA | 0.117
ATCGGTTC | 0.152
AGCCTTCC | -0.109
CAGATGAG | -0.00883
CTAGGGCC | -0.119
CCGATCAC | 0.264
TAAACCGA | 0.165
AGGGCCAT | -0.296
AGCCCTGC | -0.268
GTTCGTCA | -0.0695
CGTGGGGA | -0.146
AGTAGATG | 0.0588
CAGGCCAC | -0.163
AGCTCCGA | 0.251
CGGGCCCG | 0.351
CCGCTAAG | 0.103
CAGACGCG | -0.121
ACCGGGAA | 0.28
GGGAGTAA | 0.109
CTATTCAA | 0.0942
AGGGGTAC | -0.193
GTGACACA | 0.0437
ACTCATTG | -0.146
AGCTTGGC | -0.0541
AGCACGCG | 0.0315

Sequence | PBM E-score
AGAGCTGG | -0.0867
GGGGCCAA | -0.241
GACTGTAA | -0.0482
GGAGCCCA | -0.262
GCCTTTGA | -0.0799
GTAGTTAA | 0.0718
ACTTAGGA | -0.0768
GCTATAGA | -0.0355
CGGACCTC | 0.156
CCGGAGTC | 0.235
AGTTTAAC | -0.053
GATGCGGC | 0.0571
CGCTTGGC | -0.215
CGAGACTA | -0.0281
AGTAGACC | -0.0973
CACCCCTA | -0.296
CTGCCTGC | -0.179
GTAGCCCA | -0.285
GCAGGGGA | -0.385
CGGAACGC | 0.241
AGCCTGGC | -0.283
ATACCCTA | -0.0562
CGTTGCAA | 0.138
AATCTCTA | -0.0742
GCTAAGAC | 0.0763

Sequence | PBM E-score
CTGTATCC | 0.0659
CCGTTGGC | 0.13
ATAAACGC | -0.0379
CAAGCTCG | 0.212
CACCGCCG | 0.0457
CAATATGA | 0.0198
AATGTACC | -0.119
TGAACTAA | -0.00313
CTCGAGAG | -0.113
GGATAACC | -0.00491
AAGTTATC | 0.04
CCTACTCA | -0.12
CGTTTCCC | 0.0265
GTAGGAGA | -0.181
CCCAGTAG | -0.0348
GGCATAAA | 0.14
AAAGACAG | 0.0541
ACAGTGAA | 0.0796
GACCTGAC | 0.0117
AGAGGGCG | -0.0985
GAGGCCCA | -0.319
AGCCCCTA | -0.311
AAGCGGAG | -0.0887
CTCCGTAA | 0.0982
CGCACAGA | -0.0315

Sequence | PBM E-score
CGCGACAG | -0.181
CCCATCTC | -0.19
CCCCCAAA | -0.319
TACCGCAA | 0.105
CCTCTGAG | -0.0893
ACACGTTG | -0.15
AGAAACGA | 0.0949
ATGCCCCG | -0.139
ACATCCCC | -0.18
GAGATCGC | -0.0683
ACGGTGAG | -0.113
CATCCTGA | 0.0635
CCATGGTA | -0.264
CATGCTTA | -0.103
TCTAATCA | 0.158
GGATTTTA | -0.00628
AAGCGTCT | -0.258
CTACGTAG | -0.039
AAATCCTG | 0.0774
CACCGTAC | -0.115
CCTAAAGA | -0.164
GTAATCGA | 0.0544
